Values from PubChem BioAssay AID1224828 (NIAID, 2016).
The deposit covers about 17,000 reagents; this is an unselected part. 762 of them (4.5%) count as active. 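Active calls include both raised and lowered p65 entry, mostly lowered; wells with fewer than 50 cells lack a z-score.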 Raw values vary from plate to plate and are shown uncorrected. A number with no mark means an inactive call. Reagents against one gene are numbered here.

Assay: 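Knock-downs that increase or decrease LPS-induced p65 nuclear translocation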 (primary screen)
Cells: mouse RAW264.7 G9 macrophage reporter cells (GFP-p65, Tnf promoter-mCherry)
Reagent: siRNA pool against mouse genes, 100 nM
Duration: 2 days siRNA transfection, then 40 min LPS before fixation
Challenge: LPS (Salmonella minnesota R595) at 10 ng/ml
Measured: 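Imaged p65 nuclear translocation ratio, normalised to the plate median, converted to robust z-scores and averaged across two replicates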
Reading the numbers: p65 translocation robust z-score: higher = more nuclear NF-kappaB p65 after LPS than the plate median; nuclear/cytoplasmic p65 ratio: higher = more nuclear NF-kappaB p65
Rule for the call: 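Active if robust z is above 3.3 (negative regulators) or below -1.56, the Tlr4 control median (positive regulators); activity score 50 or more; control wells not called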
Calls: active = hit (p65 shift raised or lowered); inactive = no clear change

What did the screen give for Scmh1 (Scm polycomb group homolog 1)?
p65 translocation robust z-score: 2.8; nuclear/cytoplasmic p65 ratio, rep 1: 1.5; nuclear/cytoplasmic p65 ratio, rep 2: 2.41; low cell count flag: enough cells to score

With Defb8 (defensin beta 8), what does the deposit list?
p65 translocation robust z-score: 0.92; nuclear/cytoplasmic p65 ratio, rep 1: 1.65; nuclear/cytoplasmic p65 ratio, rep 2: 1.73; low cell count flag: enough cells to score

For Gpr139 (G protein-coupled receptor 139), how do the results read?
p65 translocation robust z-score: -0.73; nuclear/cytoplasmic p65 ratio, rep 1: 1.36; nuclear/cytoplasmic p65 ratio, rep 2: 1.52; low cell count flag: enough cells to score

For Chac2 (ChaC, cation transport regulator 2), what does the deposit list?
p65 translocation robust z-score: 1.38; nuclear/cytoplasmic p65 ratio, rep 1: 1.47; nuclear/cytoplasmic p65 ratio, rep 2: 1.76; low cell count flag: enough cells to score

For Slc30a4, what was measured?
nuclear/cytoplasmic p65 ratio, rep 1: 1.67; nuclear/cytoplasmic p65 ratio, rep 2: 1.12; low cell count flag: fewer than 50 cells per well; well left out of scoring

For Oc90 (otoconin 90), what does the deposit list?
p65 translocation robust z-score: 0.77; nuclear/cytoplasmic p65 ratio, rep 1: 1.83; nuclear/cytoplasmic p65 ratio, rep 2: 1.65; low cell count flag: enough cells to score

For Chrna2 (cholinergic receptor nicotinic alpha 2 subunit), how do the results read?
p65 translocation robust z-score: -0.39; nuclear/cytoplasmic p65 ratio, rep 1: 1.34; nuclear/cytoplasmic p65 ratio, rep 2: 1.39; low cell count flag: enough cells to score

How did the screen score Rab3il1 (RAB3A interacting protein (rabin3)-like 1) #1?
p65 translocation robust z-score: -1.17; nuclear/cytoplasmic p65 ratio, rep 1: 1.47; nuclear/cytoplasmic p65 ratio, rep 2: 1.24; low cell count flag: enough cells to score

For Rab3il1 (RAB3A interacting protein (rabin3)-like 1) #2, what was measured?
p65 translocation robust z-score: 2.36; nuclear/cytoplasmic p65 ratio, rep 1: 1.83; nuclear/cytoplasmic p65 ratio, rep 2: 2.29; low cell count flag: enough cells to score

What did the screen give for Btbd1 (BTB domain containing 1)?
p65 translocation robust z-score: -0.2; nuclear/cytoplasmic p65 ratio, rep 1: 1.37; nuclear/cytoplasmic p65 ratio, rep 2: 1.53; low cell count flag: enough cells to score

What is on record for Tspyl5 (testis-specific protein, Y-encoded-like 5)?
p65 translocation robust z-score: 0.34; nuclear/cytoplasmic p65 ratio, rep 1: 1.59; nuclear/cytoplasmic p65 ratio, rep 2: 1.36; low cell count flag: enough cells to score

With Obox5 (oocyte specific homeobox 5), what does the deposit list?
p65 translocation robust z-score: 0.4; nuclear/cytoplasmic p65 ratio, rep 1: 1.8; nuclear/cytoplasmic p65 ratio, rep 2: 1.57; low cell count flag: enough cells to score

With Shoc2 (Shoc2, leucine rich repeat scaffold protein), how do the results read?
nuclear/cytoplasmic p65 ratio, rep 1: 1.13; nuclear/cytoplasmic p65 ratio, rep 2: 1.01; low cell count flag: fewer than 50 cells per well; well left out of scoring

How did the screen score Ak5 (adenylate kinase 5)?
p65 translocation robust z-score: -1.73 (active); nuclear/cytoplasmic p65 ratio, rep 1: 1.25; nuclear/cytoplasmic p65 ratio, rep 2: 1.44; low cell count flag: enough cells to score

Just “nuclear/cytoplasmic p65 ratio, rep 1” (2 entries from above):
Btbd1 (BTB domain containing 1)	1.37
Tspyl5 (testis-specific protein, Y-encoded-like 5)	1.59
